Results on 9 sequences are retold here after publication doi:10.1101/2023.08.19.553944.

Chains of the proteins cited; added tags and fusions are not shown. Lines headed by an entry give the natural chain unless they say otherwise; changes in a name come on top.
UniProt Q8TEQ6: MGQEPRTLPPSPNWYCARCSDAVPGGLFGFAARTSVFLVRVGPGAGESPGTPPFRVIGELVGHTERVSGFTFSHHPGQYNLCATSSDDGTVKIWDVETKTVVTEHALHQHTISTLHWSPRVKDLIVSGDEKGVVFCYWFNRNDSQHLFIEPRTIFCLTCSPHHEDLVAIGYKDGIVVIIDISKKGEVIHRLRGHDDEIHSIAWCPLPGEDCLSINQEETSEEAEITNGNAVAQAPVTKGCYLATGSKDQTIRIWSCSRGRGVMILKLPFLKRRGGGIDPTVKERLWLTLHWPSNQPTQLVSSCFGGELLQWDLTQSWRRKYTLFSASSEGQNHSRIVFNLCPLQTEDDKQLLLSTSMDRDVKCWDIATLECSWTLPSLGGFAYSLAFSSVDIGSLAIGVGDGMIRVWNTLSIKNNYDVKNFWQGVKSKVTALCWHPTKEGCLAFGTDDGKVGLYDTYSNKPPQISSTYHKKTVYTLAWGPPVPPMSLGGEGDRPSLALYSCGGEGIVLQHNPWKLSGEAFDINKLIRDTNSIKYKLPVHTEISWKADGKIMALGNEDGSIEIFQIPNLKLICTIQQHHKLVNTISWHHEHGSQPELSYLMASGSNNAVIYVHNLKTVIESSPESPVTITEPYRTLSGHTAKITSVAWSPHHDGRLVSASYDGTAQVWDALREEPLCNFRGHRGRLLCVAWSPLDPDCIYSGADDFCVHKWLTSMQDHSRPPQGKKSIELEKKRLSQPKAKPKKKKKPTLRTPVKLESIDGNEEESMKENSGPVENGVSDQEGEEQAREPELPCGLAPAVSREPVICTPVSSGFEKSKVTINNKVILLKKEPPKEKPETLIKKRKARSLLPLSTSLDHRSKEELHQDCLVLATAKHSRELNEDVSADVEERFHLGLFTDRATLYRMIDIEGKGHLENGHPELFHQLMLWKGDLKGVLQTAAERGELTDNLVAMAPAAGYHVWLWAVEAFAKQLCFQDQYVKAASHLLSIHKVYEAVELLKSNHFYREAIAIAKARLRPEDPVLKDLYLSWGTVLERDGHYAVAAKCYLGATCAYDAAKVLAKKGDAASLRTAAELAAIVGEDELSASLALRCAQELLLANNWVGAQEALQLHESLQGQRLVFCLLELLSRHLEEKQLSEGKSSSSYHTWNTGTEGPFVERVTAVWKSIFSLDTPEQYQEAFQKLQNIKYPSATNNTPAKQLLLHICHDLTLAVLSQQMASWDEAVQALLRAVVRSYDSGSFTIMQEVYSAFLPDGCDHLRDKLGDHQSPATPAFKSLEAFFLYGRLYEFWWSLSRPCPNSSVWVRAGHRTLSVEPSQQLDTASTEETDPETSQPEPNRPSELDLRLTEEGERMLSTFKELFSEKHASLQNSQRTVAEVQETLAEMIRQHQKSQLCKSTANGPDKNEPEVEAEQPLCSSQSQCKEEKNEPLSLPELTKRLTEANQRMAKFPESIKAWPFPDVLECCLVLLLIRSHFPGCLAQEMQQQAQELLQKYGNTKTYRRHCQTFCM
UniProt P26599: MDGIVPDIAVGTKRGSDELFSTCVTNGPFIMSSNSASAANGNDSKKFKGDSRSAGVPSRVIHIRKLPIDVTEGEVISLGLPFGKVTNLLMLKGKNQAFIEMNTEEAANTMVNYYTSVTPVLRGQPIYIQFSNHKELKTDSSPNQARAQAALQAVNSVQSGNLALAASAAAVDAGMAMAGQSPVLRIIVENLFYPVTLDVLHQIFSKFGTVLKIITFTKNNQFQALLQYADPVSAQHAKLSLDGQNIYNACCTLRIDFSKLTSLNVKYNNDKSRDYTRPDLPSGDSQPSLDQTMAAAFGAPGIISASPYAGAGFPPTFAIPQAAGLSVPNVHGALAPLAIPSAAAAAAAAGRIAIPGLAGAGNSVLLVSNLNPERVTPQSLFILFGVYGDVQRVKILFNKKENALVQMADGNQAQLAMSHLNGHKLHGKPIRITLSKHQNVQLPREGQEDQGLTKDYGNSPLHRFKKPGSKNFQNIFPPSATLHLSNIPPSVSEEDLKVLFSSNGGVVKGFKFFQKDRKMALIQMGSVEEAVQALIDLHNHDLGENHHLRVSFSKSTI
UniProt O00425, whole entry: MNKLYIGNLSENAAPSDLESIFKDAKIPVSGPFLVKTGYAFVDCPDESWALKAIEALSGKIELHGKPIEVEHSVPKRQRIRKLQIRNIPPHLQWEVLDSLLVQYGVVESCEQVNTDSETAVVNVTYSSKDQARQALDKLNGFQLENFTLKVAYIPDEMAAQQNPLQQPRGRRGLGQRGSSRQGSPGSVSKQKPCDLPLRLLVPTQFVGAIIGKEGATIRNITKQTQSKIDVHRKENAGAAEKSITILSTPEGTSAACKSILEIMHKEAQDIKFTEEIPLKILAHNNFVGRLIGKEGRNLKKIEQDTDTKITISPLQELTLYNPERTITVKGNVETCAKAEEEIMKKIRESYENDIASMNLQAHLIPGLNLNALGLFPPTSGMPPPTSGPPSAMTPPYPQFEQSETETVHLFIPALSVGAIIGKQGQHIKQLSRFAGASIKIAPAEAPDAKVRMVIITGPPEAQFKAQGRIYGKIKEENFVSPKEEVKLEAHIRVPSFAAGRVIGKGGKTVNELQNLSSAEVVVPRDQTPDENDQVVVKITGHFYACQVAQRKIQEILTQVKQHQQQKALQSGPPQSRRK

Where two headings read alike, the source gives them in different places. Construct, isoform or probe ends are uncertain for at least one entry. For some assays here: No signal at the amounts used counts as a negative. For some assays here: Results from cells or extracts need not show a direct contact. For some assays here: At least one verdict rests on a figure or table, not on a statement of the authors. For some assays here: The comparison behind a weaker result is the experiment's own reference, which may not be listed here. For some assays here: Where a protein sequence is shown, tags need not be part of it.

The target of data set [1] is Gemin5 (endogenous, HeLa) (Homo sapiens (HeLa)) (UniProt Q8TEQ6). In words: EMSA. The settings on record: protein in an extract. (In general: In EMSA bound probe runs differently from free probe, usually more slowly.)
The subject of data set [2] is hnRNP A1 (endogenous, HeLa) (Homo sapiens (HeLa)). In words: EMSA. The settings on record: lost with AG and CU oligonucleotides together; protein in an extract.
For data set [3], the target named is GST-PTBP1 Y247Q delta N-terminus (UniProt P26599). Put plainly: EMSA.
Data set [4] deals with GST-hnRNP A1. Put plainly: EMSA.
Data set [5] has as its target Gemin5 (endogenous, SH-SY5Y) (Homo sapiens (SH-SY5Y)) (UniProt Q8TEQ6). Put plainly: pull-down. The settings on record: SH-SY5Y lysate; protein in an extract.
The subject of data set [6] is hnRNP A1 (endogenous, HeLa) (Homo sapiens (HeLa)). In words: pull-down. The settings on record: protein in an extract.
In data set [7] the target is IGF2BP3 (endogenous, HeLa) (Homo sapiens (HeLa)) (UniProt O00425). In words: pull-down. The settings on record: protein in an extract.
The target of data set [8] is PTBP1 (endogenous, long and short isoforms, HeLa) (Homo sapiens (HeLa)) (UniProt P26599). Put plainly: EMSA. The settings on record: HeLa cytoplasmic extract; protein in an extract.
For data set [9], the target named is Gemin5 (endogenous, HeLa) (Homo sapiens (HeLa)) (UniProt Q8TEQ6). In words: pull-down. The settings on record: HeLa cytoplasmic extract; protein in an extract.
Data set [10] addresses PTBP1 (endogenous, long and short isoforms, HeLa) (Homo sapiens (HeLa)) (UniProt P26599). In words: pull-down. The settings on record: protein in an extract.
For data set [11], the system named is hnRNP A1 (endogenous, HeLa) (Homo sapiens (HeLa)). In words: competition with a labelled probe. The settings on record: protein in an extract.
The target in data set [12] is IGF2BP3 (endogenous, HeLa) (Homo sapiens (HeLa)) (UniProt O00425). In words: competition with a labelled probe. The settings on record: U7/WT binding virtually unaffected; protein in an extract.
For data set [13], the target named is PTBP1 (endogenous, long and short isoforms, HeLa) (Homo sapiens (HeLa)) (UniProt P26599). In words: competition with a labelled probe. The settings on record: protein in an extract.
In data set [14] the target is T1, PTBP2 (TnT) (UniProt Q9UKA9).
T1 sequence (looked up, limits assumed): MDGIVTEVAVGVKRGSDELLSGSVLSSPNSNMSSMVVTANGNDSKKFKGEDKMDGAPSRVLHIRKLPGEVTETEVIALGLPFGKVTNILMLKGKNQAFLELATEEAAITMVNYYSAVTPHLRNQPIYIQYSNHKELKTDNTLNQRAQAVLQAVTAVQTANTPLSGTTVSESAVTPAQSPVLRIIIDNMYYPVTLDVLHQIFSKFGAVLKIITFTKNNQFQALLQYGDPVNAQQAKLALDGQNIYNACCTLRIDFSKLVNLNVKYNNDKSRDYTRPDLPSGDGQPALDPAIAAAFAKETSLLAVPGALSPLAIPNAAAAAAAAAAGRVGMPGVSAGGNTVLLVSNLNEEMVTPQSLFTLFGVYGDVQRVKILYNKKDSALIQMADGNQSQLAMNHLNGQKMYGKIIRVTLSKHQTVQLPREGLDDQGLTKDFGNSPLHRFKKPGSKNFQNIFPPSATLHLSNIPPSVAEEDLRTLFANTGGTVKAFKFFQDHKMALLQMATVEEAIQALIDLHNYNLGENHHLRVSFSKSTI
Put plainly: EMSA. The settings on record: protein translated in vitro.

For data set [15], the system named is PTBP1 short isoform (TnT). In words: EMSA. The settings on record: protein translated in vitro.
In data set [16] the target is PTBP1 long isoform (TnT) (UniProt P26599). In words: EMSA. The settings on record: protein translated in vitro.
The target in data set [17] is T2, GST-PTBP2 (UniProt Q9UKA9).
T2 sequence (looked up, limits assumed): T1 sequence (looked up, limits assumed)
In words: EMSA. The settings on record: dimer.

Data set [18] has as its system hnRNP A1 (TnT). Put plainly: EMSA. The settings on record: protein translated in vitro.
The target of data set [19] is GST-PTBP1 (UniProt P26599). Put plainly: EMSA. The settings on record: dimer.
In data set [20] the target is 5xH-PTBP1 (UniProt P26599). Put plainly: EMSA. The settings on record: monomer and dimer.
The test system of data set [21] is GST-PTBP2 + hnRNP A1 (endogenous, HeLa). In words: pull-down. The settings on record: ternary complex on GSH beads, HeLa nuclear extract.
The subject of data set [22] is GST-PTBP1 + hnRNP A1 (endogenous, HeLa). Put plainly: pull-down. The settings on record: ternary complex on GSH beads, HeLa nuclear extract.
Data set [23] deals with PTBP1 (endogenous, SH-SY5Y) (Homo sapiens (SH-SY5Y)) (UniProt P26599). Put plainly: pull-down. The settings on record: SH-SY5Y lysate; protein in an extract.
Data set [24] deals with 5xH-PTBP1 (UniProt P26599). Put plainly: UV cross-linking. The settings on record: 80 and 160 kDa species.
The target in data set [25] is PTBP1 (TnT, isoform not stated for this lane) (UniProt P26599). Put plainly: UV cross-linking. The settings on record: monomer, ~80 kDa; protein translated in vitro.
Setting [26] is: HeLa cytoplasmic extract, 7.5 ug RNA.

Turning to “CAGUGUUACAGGAGAUUUAGAAUUUUUGGAGUAGGCUUUCUGGCUUUUUACCGGAAAGCCCCUCUUAUG [U7/2xMut]”, the binding result in [1] (HeLa cytoplasmic extract) is reported as “binds”; in data set [2], “binds”; in data set [3] it was “no binding”; in [4], “binds”; in data set [5], “binds”; in data set [6] (same or higher than U7/WT), “binds”. In addition, the binding result in data set [7] (virtually eliminated) was “no binding”.

As for “CAGUGUUACAGGAGAUUUAGAAUUUGUCUAGUAGGCUUUCUGGCUUUUUACCGGAAAGCCCCUCUUAUG [U7/PU]”, the binding result was “no binding” in [1] (HeLa cytoplasmic extract); “no binding” in data set [8]; “no binding” in [9]; “binds” in data set [6] (higher than U7/WT); “binds more weakly” in data set [7] (7.5 ug RNA); “binds more weakly” in data set [10] (setting [26]).

For the sequence CUCUCUCUCUUUCUUU [CU oligonucleotide], the binding result was “no binding” in data set [11] (U7/WT binding virtually unaffected), “no binding” in data set [12] and “binds” in data set [13] (inhibits U7/WT complex).

Turning to “CAGUGUUACAGCUCUUUUGAAAUUUGUCUGAUAGGCUUUCUGGCUUUUUACCGGAAAGCCCCUCUUAUG [U7/2xGA]”, the binding result in [6] (HeLa cytoplasmic extract) is on record as “binds more weakly”.

Turning to “UGAAAAUUUUUAUUCUCUUUGAAAUUUGUCUUGGUGGGACCCUUUGUCUAGGCAUUGAGUGUUCCCGUU [Dm U7]”, the binding result in data set [9] is “binds”; in [6] (HeLa cytoplasmic extract) it was “no binding”; in data set [7] (HeLa cytoplasmic extract), “no binding”; in data set [10] (HeLa cytoplasmic extract, exceeds U7/WT) it was “binds”.

For “UAUGAUAGGGACUUAGGGUG [AG (UAG) oligonucleotide]”, the values for the binding result in data set [11] (prevents binding to U7/WT) and in [13] (no effect on PTBP1 binding to U7/WT) were “binds” and “no binding”, respectively.

Take CAGUGUUACAGCUCUUUUAG [5' U7 (20-mer)]: in [13] (partially inhibits U7/WT complex), the binding result is “binds more weakly”.

Take “CAGUGUUACAGCUCUUUUAGAAUUUUUGGAGUAGGCUUUCUGGCUUUUUACCGGAAAGCCCCUCUUAUG [U7/SPL]”: the binding result in data set [1] (supershifted by anti-Gemin5, HeLa cytoplasmic extract) is on record as “binds”; in [8], “binds more weakly”; in [9], “binds”; in data set [6] (same or higher than U7/WT), “binds”; in [7] (7.5 ug RNA), “binds more weakly”; in [7] (limiting RNA (750 ng)) it was “no binding”. For the same sequence, the binding result is given as “binds more weakly” in data set [10] (setting [26]); “no binding” in data set [10] (HeLa cytoplasmic extract, limiting RNA (750 ng)); “binds more weakly” in data set [10] (HeLa nuclear extract, difference by silver stain only); “binds more weakly” in data set [13] (500-fold excess U7/SPL does not eliminate U7/WT complex).

Take “CAGUGUUACAGCUCUUUUAGAAUUUGUCUAGUAGGCUUUCUGGCUUUUUACCGGAAAGCCCCUCUUAUG [U7/WT]”: the binding result in data set [14], in data set [15], in data set [16], in data set [1] (with excess CU oligonucleotide sequestering PTBP1), in data set [17] and in data set [18] was “binds” in each case. The binding result in [19], in data set [3] (dimer), in [20], in data set [8], in [4] and in [21] was “binds” in each case. Besides, the binding result is given as “binds” in data set [22]; “no binding” in data set [5]; “no binding” in [9]; “binds” in data set [6] (HeLa cytoplasmic extract); “binds” in data set [7] (HeLa cytoplasmic extract); “binds” in data set [10] (HeLa cytoplasmic extract). Further, the binding result in data set [10] (HeLa nuclear extract), in data set [23], in [24] and in data set [25] was “binds” in each case.
